Experimental data from US20240216557A1, “RADIOLIGAND BINDING TO ANTI-DLL3 ANTIBODIES FOR PRETARGETED PET IMAGING AND THERAPEUTIC USES THEREOF” (Memorial Sloan-Kettering Cancer Center, priority 2021, published 2024).
No constants are given. Whether binding was seen depends on the method and setting. Some binding calls cover weakened binding; strength is not graded here.

Amino acid sequences for entries named in this document (tags omitted). A change or cut given only in a name is not applied to a line headed by its entry.
UniProt Q9NYJ7: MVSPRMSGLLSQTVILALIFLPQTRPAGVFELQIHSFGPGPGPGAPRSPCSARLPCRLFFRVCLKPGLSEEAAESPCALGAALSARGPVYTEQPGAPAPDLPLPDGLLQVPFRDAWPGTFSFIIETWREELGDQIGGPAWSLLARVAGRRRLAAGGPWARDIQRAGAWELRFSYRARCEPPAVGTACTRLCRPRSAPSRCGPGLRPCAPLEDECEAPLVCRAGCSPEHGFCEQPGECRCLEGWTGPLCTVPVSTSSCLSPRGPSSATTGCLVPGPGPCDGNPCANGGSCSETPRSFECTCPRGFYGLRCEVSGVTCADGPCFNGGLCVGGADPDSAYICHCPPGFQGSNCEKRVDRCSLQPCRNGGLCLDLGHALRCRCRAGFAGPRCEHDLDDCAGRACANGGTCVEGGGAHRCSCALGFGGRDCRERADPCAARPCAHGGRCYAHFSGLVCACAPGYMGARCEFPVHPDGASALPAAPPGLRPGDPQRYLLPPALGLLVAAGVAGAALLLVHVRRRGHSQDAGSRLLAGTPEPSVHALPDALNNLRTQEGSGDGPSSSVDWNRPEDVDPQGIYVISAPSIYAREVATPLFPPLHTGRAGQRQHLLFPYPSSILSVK

Assays:
[1] = biological target: Histidine-tagged DLL3 antigen (Homo sapiens (Human)) (UniProt Q9NYJ7); test: Carterra array SPR, antibody immobilized, DLL3-His injected
[2] = biological target: Recombinant Human DLL3 Protein (amino acids Ala27-Ala479, cat #9749-DL, R&D Systems) (human) (UniProt Q9NYJ7); test: BLI, Octet HTX

| Binder | binding [1] | binding [2] |
| --- | --- | --- |
| B2 (antibody, V domains shown) VH: QVQLVQSGAEVKKPGASVKVSCKASGYTFTSYYMHWVRQAPGQGLEWMGIINPSGGSTSYAQKFRGRVTMTRDTSTSTVYMELSSLRSEDTAVYYCARGDYDILTDYYYNMDVWGQGTTVTVSS VL: DIQMTQSPSAMSASVGDRVTITCRASQGISNYLAWFQQKPGKVPKRLIYAASSLQSGVPSRFSGSGSGTEFTLTISSLQPEDFATYYCLQHNSYPYTFGQGTKLEIK | binds | – |
| E9 (antibody, V domains shown) VH: QVQLVQSGAEVKKPGASVKVSCKASGYTFTSYYMHWVRQAPGQGLEWMGVINSSGGSTSYAQKFQGRVTMTRDTSTSTVYMDLSSLRSEDTAVYYCARGYCTNGVYYDEDFDYWGQGTLVTVSS VL: DIQMTQSPSSLSASVGDRVTITCRASQGISHYLAWFQQKPGKAPTSLIYAASSLQSGVPSKFSGSGSGTDFTLTISSLQPEDFATYYCQQYNSYPLTFGGGTKVEIK | binds | – |
| J8 (antibody, V domains shown) VH: QVHLVQSGAEVKKPGASVKVSCKASGYTFTIYYIHWVRQAPGQGLEWMGIINPSGGSTSYAQKFQGRVTMTRDTSTSTVYMELSSLRSEDTAVYYCSGNDYVDYVTTDYYGMDVWGQGTTVTVSS VL: DIQMTQSPSSLSASVGDRVTITCRASQGISNYLAWFQQKPGKAPKSLIYAASSLQSGVPSKFSGSGSGTDFTLTISSLQPEDFATYYCQQYNSSPYTFGQGTKLEIK | binds | – |
| B16-v2 (antibody, V domains shown) VH: QVQLVQSGAEVKKPGASVKVSCKASGYTFTSYYMHWVRQAPGQGLEWMGIIDPSGGSTSYAQKFQGRVTMTRDTSTNTVYMDLSSLRSEDTAVYYCARQGRYVGSYLDYWGQGTLVTVSS VL: DIQMTQSPSSLSASVGDRVTITCRASQGISNYLAWFQQKPGKAPKSVIYAASSLQSGVPSKFSGSGSGTDFTLTISSMQPEDFATYYCQQYNSYPYTFGQGTKLEIK | binds | – |
| F9 (antibody, V domains shown) VH: QVQLVQSGAEVKKPGASVQVSCKASGYTFTSYYMHWVRQAPGQGLEWMGIINPSGGSTSYAQKFQGRVTMTRDTSTSTVYMELSSLRSEDTAVYYCARQGGAQWLVLAFDIWGQGTMVTVSS VL: EIVLTQSPGTLSLSPGERATLSCRASQSVSSYLAWYQQKPGQPPRLLIYGASSRATGIPDRFSGGGSGTDFTLTISRLEPEDFAVYYCQQYDSSPYTFGQGTKLEIK | binds | binds |
| G16 (antibody, V domains shown) VH: QVQLVQSGAEVKKPGASVQVSCKASGYTFTSYYMHWVRQAPGQGLEWMGIINPSGGSTSYAQKFQGRVTMTRDTSTSTVYMELSSLRSEDTAVYYCARQGGAQWLVLAFDIWGQGTMVTVSS VL: EIVLTQSPGTLSLSPGERATLSCRASQSVSSYLAWYQQKPGQAPRLLIYGASSRATGIPDRFSGGGSGTDFTLTISRLEPEDFAVYYCQQYGSSPYTFGQGTKLEIK | binds | – |

Next, values leading:

| binding [1] | binding [2] | Binder |
| --- | --- | --- |
| binds | – | A18 (antibody, V domains shown) VH: QVTLRESGPALVKSTQTLTLTCTFSGFSLSTSGMCVSWIRQTPGKALEWLALIDWDDNKYYSTSLKTRLIISKDTSKNQVVLTMTNMEPVDTATYYCARIRGYSGSYDAFDIWGQGTMVTVSS VL: DIVMTQSPLSLPVTPGEPASISCRSSQSLLHSNGYNYLDWYLQKPGQSPHILLYLGSNRAPGVPDRFSGSGSGTDFTLKISRVEAEDVGVYYCMQALQTPFTFGPGTKVDIK |
| binds | – | O24 (antibody, V domains shown) VH: QVQLVQSGAEVKKPGASVKVSCKASGYTFTSYYLHWVRQAPGHGLEWMAIINPSGGSTSYAQKFLGRVTMTRDTSTNTVYMELSSLRSEDTAVYYCARERQQLDYYYFAMDVWGQGTTVTVSS VL: DIQMTQSPSSLSASVGDRVTITCRASQGISNYLAWFQQKPGKAPKSLIYAASSLQSGVPSKFSGSGSGTDFTLTISSLQPEDFATYYCQQYNSYPPTFGQGTKVEIK |
| binds | – | E23 (antibody, V domains shown) VH: QVQLVQSGAEVRKPGASVKVSCKASGYTFTGYYMHWVRQAPGQGLEWMGWINSYSGGANYAQKFQDRVTMTRDTSVSTASMELSRLRSDDTAVYYCARDGSGWYGSYFDFWGQGTLVTVSS VL: DIVMTQTPLSSPVTLGQPASISCRSSQSLVHSDGNTYLSWLQQRPGQPPRLLIYKISNRFSGVPDRFSGSGAGTDFTLKISRVEAEDVGFYYCIQTTQFPLTFGGGTKVEIK |
| binds | – | L22 (antibody, V domains shown) VH: EVQLLESGGGLVQPGGSLRLSCAASGFTFSSYAMGWVRQTPGKGLEWVSTISGRGGDTYYADSVKGRFTISRDNSKNTLYLQMNSLRAEDTAIYYCAKERGLGFDYWGQGTLVTVSS VL: DIVMTQTPLSLPVTPGEPASISCRSSQSLLDSDDGNTYLDWYLQKPGQSPQLLIYTLSYRASGVPDRFSGSGSGTDFTLKISRVEAEDVGVYYCMQHLEFPLTFGGGTKVEIK |
